Data source: PubChem BioAssay AID1508588 (Peter MacCallum Cancer Centre, 2020)
In all, the deposit lists about 18,000 reagents; shown is an unselected part. 790 of all reagents (4.4%) were called active. 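Calls rest on a combination of fold-change classes in drug and vehicle arms, not all shown here.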 Entries without a mark were called inactive.

- Assay: 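Knock-downs boosting vemurafenib effects on melanoma cell growth or lactate release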 (primary screen)
- System: human WM266.4 melanoma cells (BRAF V600 mutant)
- Reagents: siRNA pool against human genes, 40 nM
- Timing: 96 h from transfection to read-out
- Conditions: vemurafenib 300 nM (about IC25), added 48 h after transfection, for 48 h; comparison arm got DMSO vehicle only
- Read-out: 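Ratios to non-targeting siRNA for cell gain, counted as DAPI nuclei after minus before drug and averaged over two replicates, and for absorbance-read medium lactate per cell; both binned into fold-change classes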
- Reading the numbers: cell gain with vemurafenib: higher = more cell gain than with non-targeting siRNA; lactate per cell with vemurafenib: higher = more lactate made per cell
- Active means: 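Enhancement is called by pairing each knock-down's vehicle-arm and drug-arm fold-change classes for viability or glycolysis; which class combinations qualify is not given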
- Calls: active = enhances vemurafenib effect; inactive = no enhancement seen

For RPL32 (GeneID 6161), what was measured?
cell gain with vemurafenib: -0.1; lactate per cell with vemurafenib: -0.28

For CAPN10 (GeneID 11132), what does the deposit list?
cell gain with vemurafenib: 0.2; lactate per cell with vemurafenib: 1.27

For KCNQ1 (GeneID 3784), what was measured?
cell gain with vemurafenib: 0.57; lactate per cell with vemurafenib: 0.74

With BAP1 (GeneID 8314), how do the results read?
cell gain with vemurafenib: 0.81; lactate per cell with vemurafenib: 0.6

For PLEKHA6 (GeneID 22874), how do the results read?
cell gain with vemurafenib: 0.51; lactate per cell with vemurafenib: 0.67

Which result is listed for RASA2 (GeneID 5922)?
cell gain with vemurafenib: 0.91; lactate per cell with vemurafenib: 0.86

What did the screen give for NUCB2 (GeneID 4925)?
cell gain with vemurafenib: 0.71; lactate per cell with vemurafenib: 1.01

What is on record for ZNF559 (GeneID 84527)?
cell gain with vemurafenib: 0.6; lactate per cell with vemurafenib: 1.09

What is on record for LAMB1 (GeneID 3912)?
cell gain with vemurafenib: 0.6; lactate per cell with vemurafenib: 0.96

With NR6A1 (GeneID 2649), how do the results read?
cell gain with vemurafenib: 0.44; lactate per cell with vemurafenib: 1.15

With GNG10 (GeneID 2790), what was measured?
cell gain with vemurafenib: 0.67; lactate per cell with vemurafenib: 1.42

How did the screen score HCCS (GeneID 3052)?
cell gain with vemurafenib: 0.33; lactate per cell with vemurafenib: 1.86

What did the screen give for AURKB (GeneID 9212)?
cell gain with vemurafenib: -0.09; lactate per cell with vemurafenib: 4.94

With GPR87 (GeneID 53836), what does the deposit list?
cell gain with vemurafenib: 0.31; lactate per cell with vemurafenib: 0.8

Which result is listed for MTMR12 (GeneID 54545)?
cell gain with vemurafenib: 0.6; lactate per cell with vemurafenib: 0.92

How did the screen score ALG5 (GeneID 29880)?
cell gain with vemurafenib: 1.02 (active); lactate per cell with vemurafenib: 0.55

How did the screen score ZDHHC6 (GeneID 64429)?
cell gain with vemurafenib: 0.35; lactate per cell with vemurafenib: 1.24

With B2M (GeneID 567), what does the deposit list?
cell gain with vemurafenib: 0.32; lactate per cell with vemurafenib: 1.16

Which result is listed for QTRT1 (GeneID 81890)?
cell gain with vemurafenib: 0.49; lactate per cell with vemurafenib: 1.08

How did the screen score TP53INP1 (GeneID 94241)?
cell gain with vemurafenib: 0.83; lactate per cell with vemurafenib: 0.62

What did the screen give for DAOA (GeneID 267012)?
cell gain with vemurafenib: 0.15; lactate per cell with vemurafenib: 2.28

With AKAP1 (GeneID 8165), what does the deposit list?
cell gain with vemurafenib: 0.44; lactate per cell with vemurafenib: 0.78

What did the screen give for FMNL3 (GeneID 91010)?
cell gain with vemurafenib: 0.82; lactate per cell with vemurafenib: 0.88

What is on record for NFKBIZ (GeneID 64332)?
cell gain with vemurafenib: 0.54; lactate per cell with vemurafenib: 1.3

For KDM2B (GeneID 84678), what was measured?
cell gain with vemurafenib: 0.49; lactate per cell with vemurafenib: 0.78

Which result is listed for HYKK (GeneID 123688)?
cell gain with vemurafenib: 0.27; lactate per cell with vemurafenib: 1.36

What is on record for RAD52 (GeneID 5893)?
cell gain with vemurafenib: 0.18; lactate per cell with vemurafenib: 1.19

For GPN3 (GeneID 51184), what was measured?
cell gain with vemurafenib: 0.63; lactate per cell with vemurafenib: 1.22

For PLEKHG5 (GeneID 57449), what was measured?
cell gain with vemurafenib: 0.29; lactate per cell with vemurafenib: 1.45

With CCL15 (GeneID 6359), what does the deposit list?
cell gain with vemurafenib: 0.95; lactate per cell with vemurafenib: 0.82

What did the screen give for GEMIN2 (GeneID 8487)?
cell gain with vemurafenib: 0.44; lactate per cell with vemurafenib: 1.04

How did the screen score PDE11A (GeneID 50940)?
cell gain with vemurafenib: 0.93; lactate per cell with vemurafenib: 0.86

For HAAO (GeneID 23498), what was measured?
cell gain with vemurafenib: 0.57; lactate per cell with vemurafenib: 0.65

How did the screen score EIF4E3 (GeneID 317649)?
cell gain with vemurafenib: 0.59; lactate per cell with vemurafenib: 0.98

How did the screen score KDELR2 (GeneID 11014)?
cell gain with vemurafenib: 0.82; lactate per cell with vemurafenib: 0.88

What did the screen give for DSN1 (GeneID 79980)?
cell gain with vemurafenib: 0.41; lactate per cell with vemurafenib: 0.72

With CUEDC2 (GeneID 79004), how do the results read?
cell gain with vemurafenib: 0.53; lactate per cell with vemurafenib: 0.86

What is on record for HSD17B12 (GeneID 51144)?
cell gain with vemurafenib: 0.85; lactate per cell with vemurafenib: 0.74

What is on record for ZNF718 (GeneID 255403)?
cell gain with vemurafenib: 0.84; lactate per cell with vemurafenib: 0.87

With C6orf136 (GeneID 221545), what was measured?
cell gain with vemurafenib: 0.78; lactate per cell with vemurafenib: 1.25

Records above whose gene name begins with R or r (3):
RPL32 (GeneID 6161) | cell gain with vemurafenib: -0.1; lactate per cell with vemurafenib: -0.28
RASA2 (GeneID 5922) | cell gain with vemurafenib: 0.91; lactate per cell with vemurafenib: 0.86
RAD52 (GeneID 5893) | cell gain with vemurafenib: 0.18; lactate per cell with vemurafenib: 1.19
